# Laboratory results: PubChem BioAssay AID1508600 (Functional Genomics Laboratory (NCATS/FGL), 2020)
# Screen size: about 53,000 sequences; about 3,700 (7%) were called active.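 How the source made its calls: active means gene knockdowns whose robust z-score for IL-1 alpha signal is at least 2 or at most -2, so actives lie on both sides; inactive means the rest.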 This is one part of the list.
# Experiment: Components of the Cytosolic LPS Sensing Pathway: Gene Identification via Genome-wide siRNA Screen;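 further: robust z of the log signal after scaling to non-targeting control siRNA wells of the plate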
# Details: RAW264.7 macrophages, IL-1a HTRF, actives lie on both sides, screened at 100 nM (by protocol), cells primed 5 h with Pam3CSK4 first
# How it was run: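 IL-1a HTRF of supernatants after 24 hour LipidA transfection of Pam3CSK4-primed (5 hours) RAW264.7 cells, 48h post-siRNA transfection (100 nM). Scores: percent of plate negative-control median, then log-based robust z-score.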
row,Sequence,z-score
1,GGAGGAGUAUGAUGAAUAUTT against Anp32a,inactive: 1.37
2,GGAUGUUCAAGCGCAGAGATT against Gtf3a,inactive: -0.202
3,GGCUGAAGACAAACAAAAGTT against Tm9sf2,inactive: -1.28
4,GCCAGUUUUGGUAUCCCGUTT against Lpcat2,inactive: -1.2
5,GGCCAGGAAAUAUGAAAUATT against Phtf1,inactive: -0.352
6,GCUUCGAUACCUUCAAACCTT against Stom,active: -3.7
7,CCAUCUUCAACGAAACCUATT against Erich3,inactive: -0.972
8,GGAAGAGCCUGAGAAAAGCTT against Perp,inactive: -1.34
9,GGUUAAGUCUUUAAAGAAGTT against Cilk1,inactive: 0.796
10,GGGCCAUUACAGAUGUGUUTT against Ly96,inactive: 0.211
11,GGUAGAGCAACUGUUUGCGTT against Myl7,inactive: 1.88
12,GGAACUCCAGCUUUUGGUCTT against Sox13,active: 2.51
13,GGUCGUGUACUCGUUCAGUTT against Pcdh10,active: 2.04
14,GGCAUUGUUUUCAUUGUGGTT against Cldn7,inactive: -0.0872
15,CGAAAUCAAGUUUACACUCTT against Mia2,inactive: 1.06
16,GGAUAAGGACAAUCAACUATT against Stab2,inactive: 0.806
17,GGGAGGAGAGGACAAAUUATT against Ywhae,inactive: 1.66
18,GGACACCUUACAUUAUGAATT against Rasgrf1,inactive: -0.796
19,CUACUCACAGUUUUAUUCATT against Tas2r140,inactive: -0.69
20,GGUGCUAUUCUUUCUUGUCTT against Slc12a3,inactive: -1.14
21,GGAACGAACUAAGAAUGGATT against Mapk8,inactive: 1.38
22,GGACGAUAAAUUCACUGUUTT against Inpp5d,inactive: -1.11
23,CCAUAUCAGUAUUUAGAACTT against Syt9,inactive: 0.0976

# Part of the list above, tab-delimited:
row	Sequence	z-score
5	GGCCAGGAAAUAUGAAAUATT against Phtf1	inactive: -0.352
6	GCUUCGAUACCUUCAAACCTT against Stom	active: -3.7
7	CCAUCUUCAACGAAACCUATT against Erich3	inactive: -0.972
8	GGAAGAGCCUGAGAAAAGCTT against Perp	inactive: -1.34
9	GGUUAAGUCUUUAAAGAAGTT against Cilk1	inactive: 0.796
10	GGGCCAUUACAGAUGUGUUTT against Ly96	inactive: 0.211
11	GGUAGAGCAACUGUUUGCGTT against Myl7	inactive: 1.88
12	GGAACUCCAGCUUUUGGUCTT against Sox13	active: 2.51
13	GGUCGUGUACUCGUUCAGUTT against Pcdh10	active: 2.04
14	GGCAUUGUUUUCAUUGUGGTT against Cldn7	inactive: -0.0872
15	CGAAAUCAAGUUUACACUCTT against Mia2	inactive: 1.06
16	GGAUAAGGACAAUCAACUATT against Stab2	inactive: 0.806
17	GGGAGGAGAGGACAAAUUATT against Ywhae	inactive: 1.66
18	GGACACCUUACAUUAUGAATT against Rasgrf1	inactive: -0.796
19	CUACUCACAGUUUUAUUCATT against Tas2r140	inactive: -0.69
20	GGUGCUAUUCUUUCUUGUCTT against Slc12a3	inactive: -1.14
21	GGAACGAACUAAGAAUGGATT against Mapk8	inactive: 1.38
22	GGACGAUAAAUUCACUGUUTT against Inpp5d	inactive: -1.11

# Next records

row,Sequence,z-score
1,CCGAGUAUGAGAAAUAUGATT against Ext1,inactive: -1.11
2,GGAUGUUAGUCCAUUUGGCTT against Gpc5,inactive: -0.195
3,CCUCAUGUCACUUUAACAUTT against Ccl7,inactive: -0.167
4,GCUACAGCAACAUAACAUGTT against Magi2,inactive: 0.792
5,CCAUGUGACAAAGCCUACCTT against Fam131b,inactive: 0.845
6,GCAGGGACCGUCUAUAACUTT against Ptprb,inactive: -1.12
7,GGCUUUCAUUCUGCAGCUATT against Olfr1089,active: -2.13
8,GGGAUUCAAGAAGUCCUGUTT against Elf2,inactive: 0.0178
9,GCAGGUUCAGGCAGUAAUUTT against Kpna4,active: 3.78
10,GCCGACGAGUAUACUAGACTT against Tenm3,inactive: 1.52
11,GCAGAAAAGGCGAGUUUAUTT against Phf19,inactive: -1.04
12,GCUACAAAGCGAUGUUUCATT against Pola2,inactive: 1.86
13,CGACGUGAGUUAAUGCUGCTT against Pif1,inactive: 0.0992
14,AUGGCUAUUUUGAAACCUCTT against H2-M10.3,inactive: -0.359
15,GGUGUCCUCUUUGUUCAUGTT against Sgce,active: 2.94
16,GCGAAAUCUUUGUCACUAATT against Sertad4,inactive: -0.201
17,GCCGAAGUGACAAUGUCUCTT against Tbc1d14,inactive: 0.449
18,GGUGAUUUUGACCAGUUCUTT against Cyp4v3,inactive: -0.53
19,GGCUUUGUCUUGAAUGGCUTT against Adgre1,inactive: -1.11
20,GGAUGUGAAGAUUGUCAUUTT against Usp5,inactive: -0.658
21,GGGCCUGAUCUACCUGUUUTT against Slc6a18,inactive: 0.255
22,GGUCAUGGUUAUUUUGUUATT against Plekhg2,inactive: 0.929
23,GGCUCUUCUCAACUCCAAGTT against Lmna,inactive: 0.233

row,Sequence,z-score
1,GGUGUAUCUGUUCUGUUAATT against Impg1,inactive: -0.559
2,CCGAGGUUGUGAAACGAUGTT against Trp63,inactive: -1.47
3,GGUCUCUUUUUGUUGUAGUTT against Nat10,inactive: -0.405
4,CGCGUGCUCUCAUUAAUGATT against Gna12,inactive: 0.437
5,GCCUGUUUAGAAUUAGAGATT against Plekhs1,inactive: 0.135
6,GCUACAAAGAUCACGAAAATT against C2,inactive: 0.668
7,CCAGUCAAAUAUCCAUUAGTT against Scgb2b26,active: -2.28
8,AGGCAUUAUACCCAUCAGGTT against Fam89b,inactive: -0.624
9,GCGGUACAUCAAAUCUGCGTT against Lgalsl,inactive: 0.91
10,GGACAACUACAUUGUACUGTT against Insr,inactive: -1.16
11,CCAGAAACCGUGAUAAAAUTT against Immp2l,active: 2.12
12,GGGUUUCCACAGACAAUGUTT against V1rg10,inactive: -0.837
13,GCAAGAGCACUGCUUAAAATT against E2f1,inactive: 1.26
14,GGUUACCACACUAUGUUACTT against Tbc1d2b,inactive: 0.454
15,CCCGAUGAAGUGUUUUUAGTT against Oosp1,inactive: -0.753
16,GGAUUUCAUUAUGUAGACUTT against Rag1,inactive: -0.405
17,GGUGGUGACAGGAACCUCUTT against Mob3a,inactive: -0.429
18,GGCCAUUCCUUUUCUGGAATT against Crybg1,inactive: 1.54
19,GCUACUAUUCCAUCCAUCATT against Atg4b,inactive: -0.306
20,GGAGCUGCUUGCUCAAAGATT against Tmem65,inactive: 0.61
21,GCGAGAUGUCCUCAACAAGTT against Dusp16,inactive: 0.0466
22,GCGAACUCAAACAGUUAAATT against Clca1,inactive: -0.706
23,GCCAAGAGUUUGAUAUAUATT against Plekhg3,inactive: 1.79
